These results are taken from article PMC5641590, “An Automated Platform for Assessment of Congenital and Drug-Induced Arrhythmia with hiPSC-Derived Cardiomyocytes” (Frontiers in Physiology, 2017).

The test relates to normal individual (iCell) hiPSC-CMs. Kind of test: Optical recording of VF2.1.Cl AP kinetics in normal individual (iCell) hiPSC-CMs, 100 Hz, IC200 KIC. In kind it is cell-based. To be noted: Homo sapiens, 5 min, acute treatment 5 min, n = 3 wells per dose, read-out: EC50 (dose response curve for APD75).

SMILES strings stand for the structures.

One may read the EC50 as the concentration giving half of the maximal effect. Turning to `CC(C)NCC(O)COc1cccc2ccccc12` (stereo not shown) [propranolol], the EC50 came to 51.7 µM.
